Laboratory results as given in the supplement of paper PMC12823440, “Inhibitors supercharge kinase turnover through native proteolytic circuits” (Nature, 2025).
Where a name gives a salt, the structure may show the parent alone. The list shows a part of the results. The calls rarely recur for the same compound in another form.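 Kinases were expressed as nanoluciferase fusions in K562 cells and luminescence was read every 4 h between 2 and 18 h as percent of control, DMSO set to 100% and a positive control to 0%. A time point counts as decreased when the signal drops significantly (2 sigma). The hit call is the authors' own, does not follow from the count of time points alone, and its rule is not shown.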

The chains behind the UniProt entries cited, without tags or fusion partners.
UniProt Q15118, whole entry, looked up: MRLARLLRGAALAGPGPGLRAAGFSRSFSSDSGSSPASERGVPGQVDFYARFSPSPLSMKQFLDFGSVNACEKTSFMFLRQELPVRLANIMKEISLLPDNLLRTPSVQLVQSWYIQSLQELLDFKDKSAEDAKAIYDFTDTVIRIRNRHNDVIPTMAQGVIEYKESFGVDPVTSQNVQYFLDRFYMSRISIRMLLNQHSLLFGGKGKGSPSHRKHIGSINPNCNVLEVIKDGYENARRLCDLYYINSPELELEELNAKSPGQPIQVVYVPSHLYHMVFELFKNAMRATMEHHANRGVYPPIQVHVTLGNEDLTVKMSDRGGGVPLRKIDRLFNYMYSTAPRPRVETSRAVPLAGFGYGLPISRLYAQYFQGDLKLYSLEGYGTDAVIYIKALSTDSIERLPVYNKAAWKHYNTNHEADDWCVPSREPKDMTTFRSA

Target: PDK1 (UniProt Q15118)
Assay: kinase-Nluc reporter destabilization hit call (1 = scored as downregulated) (binary); higher = compound decreases kinase abundance
Details: K562; 2-18 h

kinase-Nluc reporter destabilization hit call, inactive:
Cn1cc(Nc2nccc(N3C[C@H]4CC[C@@H](C3)N4C(=O)[C@@H]3CC3(F)F)n2)cn1 (10 µM) 0
CC(C)=CC(=O)CCC(=O)N1CCN(Cc2cc3nc(-c4cccc5[nH]ncc45)nc(N4CCOCC4)c3s2)CC1 (10 µM) 0
CN(C)CCN(Cc1ccc(Cl)cc1)c1ccccn1 [Chloropyramine hydrochloride] (10 µM) 0
COc1cc([N+](=O)[O-])ccc1S(=O)(=O)N1C[C@@H](CN2CCN(c3ccccn3)CC2)[C@H](c2cccc(F)c2)C1 (relative stereo) (10 µM) 0
Cc1noc(C)c1-c1ccc(-c2cc(C(N)=O)c(NC(N)=O)s2)c(O[C@H]2CCNC2)c1 (10 µM) 0
CC(C)(C)NC(=O)c1cncn1C1CCN(c2ccc(-c3nnc(C(F)(F)F)o3)cn2)CC1 (10 µM) 0
COc1cccc(-n2c(=O)[nH]c3cc(Cl)n(-c4ccc(-c5cccc(OC)c5O)cc4)c3c2=O)c1 (2.5 µM) 0
O=C(Nc1cccnc1)c1cc(C(=O)c2c(F)cccc2Br)c[nH]1 (10 µM) 0
O=C(Nc1cc(Oc2cc(F)c(NC(=O)C3(C(=O)Nc4ccc(F)cc4)CC3)cc2F)ccn1)C1CC1 [Altiratinib] (10 µM) 0
O=C1NC(=O)C(=Cc2ccc(-c3ccc(F)cc3)o2)S1 (stereo in doubt) (10 µM) 0
O=C(NC(NC(=S)Nc1ccc(F)c([N+](=O)[O-])c1)C(Cl)(Cl)Cl)C(c1ccccc1)c1ccccc1 (stereo not drawn) (10 µM) 0
Nc1ncnc2c1ncn2[C@@H]1O[C@H](CO)C[C@H]1O [Cordycepin] (10 µM) 0
CC(C)(NS(=O)(=O)c1ccc2c(Cl)cnc(N=C(N)N)c2c1)C(=O)O (10 µM) 0
COc1cc2ncnc(Nc3cccc(Cl)c3)c2cc1OC (10 µM) 0
CCOc1ccc(C(=O)Nc2ncc([N+](=O)[O-])s2)cc1 (10 µM) 0
CC(C)CN[C@H]1CS(=O)(=O)C[C@@H]1S(=O)(=O)c1ccc(Cl)cc1 (10 µM) 0
CCn1c(=O)c(-c2ccc(-c3cncs3)cc2Cl)cc2cnc(Nc3ccc(N4CCN(C)CC4)cc3)nc21 (2.5 µM) 0
C[C@]1(O)CCC[C@@H]1n1c(=O)c(C(F)F)cc2cnc(NC3CCN(S(C)(=O)=O)CC3)nc21 (10 µM) 0
COc1c(NC(=O)C(=O)c2ccc(OCCN3CCOCC3)c3ccccc23)cc(C(C)(C)C)cc1NS(C)(=O)=O (2.5 µM) 0
COc1cc(S(C)(=O)=O)ccc1Nc1nc2ccc(-c3ccc(NC(=O)[C@H](C)c4ccc(F)cc4)cc3)cn2n1 [Empesertib] (10 µM) 0
Nc1cc(Nc2ccc(S(N)(=O)=O)cc2)ncn1 (10 µM) 0
O=C(O)c1cc(O)ccc1O [2,5-Dihydroxybenzoic acid] (10 µM) 0
OCCNC1CCCc2c1[nH]c1ccc(-c3ccccc3)cc21 (stereo not drawn) (2.5 µM) 0
CC(C)CC1(O)CCN(C(=O)c2ccc(NS(=O)(=O)c3cccc4nccnc34)cc2)CC1 (10 µM) 0
CNC(=O)c1ccc(-c2cnc3cnc(C(=O)N(C)c4ccc(Cl)cc4)cn23)cc1 (2.5 µM) 0
Cc1cc(Nc2cc(Cl)nc(Oc3ccc([N+](=O)[O-])cc3)n2)n[nH]1 [Autophinib] (2.5 µM) 0
CN1CCN(c2ccc(Nc3ncc4nc(Nc5ccccc5)n([C@@H]5CCN(S(=O)(=O)C6CC6)C5)c4n3)cc2)CC1 (2.5 µM) 0
Cc1c(CN2CCN(S(C)(=O)=O)CC2)sc2c(N3CCOCC3)nc(-c3cnc(N)nc3)nc12 (2.5 µM) 0
O=C(NCCCNc1nc(Nc2cccc(NC(=O)N3CCCC3)c2)ncc1I)c1cccs1 (2.5 µM) 0
O=C(/C=C/c1ccc(O[C@@H]2O[C@H](CO)[C@@H](O)[C@H](O)[C@H]2O[C@@H]2OC[C@](O)(CO)[C@H]2O)cc1)c1ccc(O)cc1O [Isoliquiritin apioside] (10 µM) 0
O=C1NC(=O)/C(=C/c2ccc3c(c2)OC(F)(F)O3)S1 (10 µM) 0
COc1ccc([C@@H]2CC(=O)c3c(O)cc(O)cc3O2)cc1O [Hesperetin] (10 µM) 0
N#Cc1c(-c2ccccc2)cc(-c2cc(Br)ccc2O)[nH]c1=O (10 µM) 0
Cc1c(CN2CCN(C(=O)[C@H](C)O)CC2)sc2c(N3CCOCC3)nc(-c3cnc(N)nc3)nc12 [Apitolisib] (10 µM) 0
NC1(Cc2ccc(Cl)cc2)CCN(c2ncnc3[nH]ccc23)CC1 (10 µM) 0
O=C(/C=C/c1ccc(O)c(O)c1)c1ccc(O[C@@H]2O[C@H](CO)[C@@H](O)[C@H](O)[C@H]2O)c(O)c1O [Marein] (10 µM) 0
CN(CC(=O)N(Cc1ccc(C2CCCCC2)cc1)c1ccc(C(=O)O)cc1)S(=O)(=O)c1c(F)c(F)c(F)c(F)c1F (2.5 µM) 0
CC(C)NC(=O)N1CC[C@H](NC2=Nc3cc(F)ccc3N(CC(F)F)c3ccc(Cl)cc32)C1 (10 µM) 0

In the list so far, 2 have a tert-butyl group:
kinase-Nluc reporter destabilization hit call, inactive:
CC(C)(C)NC(=O)c1cncn1C1CCN(c2ccc(-c3nnc(C(F)(F)F)o3)cn2)CC1 (10 µM) 0
COc1c(NC(=O)C(=O)c2ccc(OCCN3CCOCC3)c3ccccc23)cc(C(C)(C)C)cc1NS(C)(=O)=O (2.5 µM) 0
